Measurements reported in paper PMC8516933.
Residue numbers refer to the chain shown, from its start. Like-named read-outs stand apart in the source and are kept apart here. These are yes or no findings as the source states them, for the method shown. Binding seen in cells or lysates may run through a third protein. A yes stands for co-enrichment or nearness to the bait. Other partners may have been found. For some assays here: A no says only that the protein was not detected with the bait. Tags and fused reporters may be left off the sequences shown. Blank lines part the entries; values can stand above or below the molecule they belong to.

Amino acid sequences for entries named in this document (tags omitted).
UniProt O35613: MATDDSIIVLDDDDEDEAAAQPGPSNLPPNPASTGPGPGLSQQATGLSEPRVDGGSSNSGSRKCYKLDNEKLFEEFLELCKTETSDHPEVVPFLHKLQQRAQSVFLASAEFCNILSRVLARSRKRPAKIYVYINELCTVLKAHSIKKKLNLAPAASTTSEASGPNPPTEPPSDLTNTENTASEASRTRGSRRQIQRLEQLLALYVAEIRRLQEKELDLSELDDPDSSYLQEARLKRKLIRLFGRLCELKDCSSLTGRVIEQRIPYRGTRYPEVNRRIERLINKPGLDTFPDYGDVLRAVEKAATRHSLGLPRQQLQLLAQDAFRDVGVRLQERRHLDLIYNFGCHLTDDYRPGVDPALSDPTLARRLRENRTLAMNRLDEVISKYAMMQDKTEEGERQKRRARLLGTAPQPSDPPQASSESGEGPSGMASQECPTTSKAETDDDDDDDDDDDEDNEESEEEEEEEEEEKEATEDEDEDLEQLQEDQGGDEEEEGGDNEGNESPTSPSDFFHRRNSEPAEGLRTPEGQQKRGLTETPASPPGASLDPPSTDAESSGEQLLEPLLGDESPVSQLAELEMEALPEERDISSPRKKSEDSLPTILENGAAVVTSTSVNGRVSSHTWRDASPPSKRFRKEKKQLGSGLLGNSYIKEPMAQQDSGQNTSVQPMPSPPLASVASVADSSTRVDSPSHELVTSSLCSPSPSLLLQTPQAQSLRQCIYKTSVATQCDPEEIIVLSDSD
UniProt P13864: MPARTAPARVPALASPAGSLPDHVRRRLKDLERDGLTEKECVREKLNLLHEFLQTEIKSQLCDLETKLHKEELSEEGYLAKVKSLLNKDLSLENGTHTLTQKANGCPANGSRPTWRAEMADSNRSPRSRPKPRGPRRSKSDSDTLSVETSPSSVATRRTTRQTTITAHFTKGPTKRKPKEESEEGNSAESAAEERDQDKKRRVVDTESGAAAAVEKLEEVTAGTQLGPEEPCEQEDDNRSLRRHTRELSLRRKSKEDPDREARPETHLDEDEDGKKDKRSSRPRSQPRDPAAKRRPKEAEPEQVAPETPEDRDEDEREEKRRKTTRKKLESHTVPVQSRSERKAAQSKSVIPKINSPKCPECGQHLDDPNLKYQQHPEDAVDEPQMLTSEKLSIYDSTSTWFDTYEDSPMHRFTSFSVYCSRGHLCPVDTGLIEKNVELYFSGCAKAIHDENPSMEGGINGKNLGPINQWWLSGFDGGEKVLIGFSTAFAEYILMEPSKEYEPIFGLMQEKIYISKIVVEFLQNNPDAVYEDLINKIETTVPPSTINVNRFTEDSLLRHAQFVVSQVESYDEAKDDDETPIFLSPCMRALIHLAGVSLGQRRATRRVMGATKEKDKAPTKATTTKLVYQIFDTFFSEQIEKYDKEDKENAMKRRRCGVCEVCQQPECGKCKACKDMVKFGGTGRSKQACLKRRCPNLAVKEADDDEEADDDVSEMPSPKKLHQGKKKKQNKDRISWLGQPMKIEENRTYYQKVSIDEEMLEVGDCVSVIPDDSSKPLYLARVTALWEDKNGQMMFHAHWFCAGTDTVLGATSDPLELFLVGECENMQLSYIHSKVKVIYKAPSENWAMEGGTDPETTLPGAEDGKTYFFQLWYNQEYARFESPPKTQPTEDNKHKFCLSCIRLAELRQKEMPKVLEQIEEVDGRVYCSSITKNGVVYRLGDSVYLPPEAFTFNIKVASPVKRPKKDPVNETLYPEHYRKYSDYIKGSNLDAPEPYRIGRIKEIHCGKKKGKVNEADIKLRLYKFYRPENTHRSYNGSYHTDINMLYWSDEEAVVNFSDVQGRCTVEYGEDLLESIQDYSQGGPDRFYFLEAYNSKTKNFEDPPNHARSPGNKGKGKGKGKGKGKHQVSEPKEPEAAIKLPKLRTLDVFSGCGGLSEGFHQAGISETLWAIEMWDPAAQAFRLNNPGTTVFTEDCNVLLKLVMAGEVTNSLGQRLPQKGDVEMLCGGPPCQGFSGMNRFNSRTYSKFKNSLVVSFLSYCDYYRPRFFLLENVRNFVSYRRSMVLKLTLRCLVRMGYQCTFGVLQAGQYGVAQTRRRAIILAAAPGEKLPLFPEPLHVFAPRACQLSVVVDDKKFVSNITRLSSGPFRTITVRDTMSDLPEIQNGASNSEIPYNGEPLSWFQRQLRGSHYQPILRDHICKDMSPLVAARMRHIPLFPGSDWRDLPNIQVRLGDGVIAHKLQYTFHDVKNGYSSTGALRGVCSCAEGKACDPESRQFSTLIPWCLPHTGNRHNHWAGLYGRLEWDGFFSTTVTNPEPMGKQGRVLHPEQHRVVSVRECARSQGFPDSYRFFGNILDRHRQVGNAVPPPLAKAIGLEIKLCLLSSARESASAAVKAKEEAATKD

Assays:
Assay in all cases: affinity purification with mass spectrometry; ChIP-MS (RIME protocol): mouse ES cells fixed with 1% formaldehyde 10 min at 22 °C, nuclei sonicated in LB3 with 20 mM NEM; 3xFLAG bait (Morc3 or Daxx) precipitated with FLAG-M2 antibody on Protein G Dynabeads, 4 h; washes with RIPA buffer (500 mM LiCl); LC-MS/MS, iBAQ; the paper says that associations may be direct, transient or mediated through DNA/RNA fragments
[1] = target: T1, Morc3 ATP binding mutant (G101A), 3xFLAG tagged (UniProt F7BJB9)
T1 sequence: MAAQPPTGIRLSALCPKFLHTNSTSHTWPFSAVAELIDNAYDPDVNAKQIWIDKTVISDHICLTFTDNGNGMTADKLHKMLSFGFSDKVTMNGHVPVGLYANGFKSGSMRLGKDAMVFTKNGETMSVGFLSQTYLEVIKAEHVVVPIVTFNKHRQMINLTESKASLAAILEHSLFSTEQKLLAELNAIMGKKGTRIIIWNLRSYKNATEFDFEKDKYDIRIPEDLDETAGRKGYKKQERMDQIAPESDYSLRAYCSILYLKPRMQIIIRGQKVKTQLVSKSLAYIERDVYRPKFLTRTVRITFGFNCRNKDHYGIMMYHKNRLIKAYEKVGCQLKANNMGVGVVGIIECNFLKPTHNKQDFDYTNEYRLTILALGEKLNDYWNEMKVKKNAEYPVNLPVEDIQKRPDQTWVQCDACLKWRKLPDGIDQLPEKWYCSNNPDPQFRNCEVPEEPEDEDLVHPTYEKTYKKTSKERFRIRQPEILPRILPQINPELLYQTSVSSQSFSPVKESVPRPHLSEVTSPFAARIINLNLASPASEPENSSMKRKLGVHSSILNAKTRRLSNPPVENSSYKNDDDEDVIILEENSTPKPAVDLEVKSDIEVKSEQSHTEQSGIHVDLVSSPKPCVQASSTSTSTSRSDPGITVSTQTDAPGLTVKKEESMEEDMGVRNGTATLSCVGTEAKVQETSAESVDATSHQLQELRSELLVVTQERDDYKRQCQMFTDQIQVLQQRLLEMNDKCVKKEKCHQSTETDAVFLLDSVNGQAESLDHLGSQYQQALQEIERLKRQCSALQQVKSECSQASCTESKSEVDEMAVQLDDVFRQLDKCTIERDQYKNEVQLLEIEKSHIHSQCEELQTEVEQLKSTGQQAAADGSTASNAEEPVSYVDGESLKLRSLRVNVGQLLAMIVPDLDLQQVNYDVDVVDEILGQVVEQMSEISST

[2] = target: T2, Morc3-3xFLAG (knock-in, expressed at endogenous levels) (mouse (endogenous in mouse ES cells)) (UniProt F7BJB9)
T2 sequence: T1 sequence with A101G

[3] = target: T2, Morc3-3xFLAG (knock-in, expressed at endogenous levels) (mouse (endogenous in mouse ES cells)); remark: listed apart in the source
[4] = target: Daxx wild type, 3xFLAG tagged (rescue construct) (UniProt O35613)

binding [1]: no binding | binding [2]: binds
Molecule: Daxx (endogenous) (from UniProt O35613 1-739)

binding [2]: binds
Molecule: Dnmt1 (endogenous) (from UniProt P13864 1-1620)

binding [3]: binds
B1: Uhrf1 (endogenous) (protein, UniProt Q8VDF2 1-782)
chain: MWIQVRTMDGKETHTVNSLSRLTKVQELRKKIEEVFHVEPQLQRLFYRGKQMEDGHTLFDYDVRLNDTIQLLVRQSLALPLSTKERDSELSDSDSGYGVGHSESDKSSTHGEGAAEADDKTVWEDTDLGLYKVNEYVDVRDNIFGAWFEAQVVQVQKRALSEDEPCSSSAVKTSEDDIMYHVKYDDYPEHGVDIVKAKNVRARARTVIPWENLEVGQVVMANYNVDYPRKRGFWYDVEICRKRQTRTARELYGNIRLLNDSQLNNCRIMFVDEVLMIELPKERRPLIASPSQPPPALRNTGKSGPSCRFCKDDENKPCRKCACHVCGGREAPEKQLLCDECDMAFHLYCLKPPLTSVPPEPEWYCPSCRTDSSEVVQAGEKLKESKKKAKMASATSSSRRDWGKGMACVGRTTECTIVPANHFGPIPGVPVGTMWRFRVQVSESGVHRPHVAGIHGRSNDGAYSLVLAGGYEDDVDNGNYFTYTGSGGRDLSGNKRTAGQSSDQKLTNNNRALALNCHSPINEKGAEAEDWRQGKPVRVVRNMKGGKHSKYAPAEGNRYDGIYKVVKYWPERGKSGFLVWRYLLRRDDTEPEPWTREGKDRTRQLGLTMQYPEGYLEALANKEKSRKRPAKALEQGPSSSKTGKSKQKSTGPTLSSPRASKKSKLEPYTLSEQQANLIKEDKGNAKLWDDVLTSLQDGPYQIFLSKVKEAFQCICCQELVFRPVTTVCQHNVCKDCLDRSFRAQVFSCPACRFELDHSSPTRVNQPLQTILNQLFPGYGSGR

binding [4]: binds
B2: Morc3 (endogenous, untagged) (protein, UniProt F7BJB9 1-942)
chain: T1 sequence with A101G
